# Screening data

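Genome-wide siRNA knockdown in TC32 Ewing sarcoma cells, comparing luciferase light from an NR0B1-promoter reporter with a CMV-promoter reporter 48 hours after transfection. Each siRNA was applied at 20 nM. A z-score of the log NR0B1-over-CMV signal, less the median of siRNAs with the same seed; more negative means a stronger specific loss of the NR0B1 reporter.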

This is part of the screen; most of the strongest results are not listed here. Sequences are the guide (antisense) strand, without overhang.

Sequence | gene | seed-corrected z-score
UUGGGAGUAAUAGCAGAGG | OR5K3 | -1.745
AUCUUGACCAUACCCAUCC | CPT1A | -0.001386
AGAGUUACUAGUAUCCAGC | DNAH14 | -0.9493
UACUUUCUCCCUAUGGUGU | LOC727751 | 0.4648
UAAACGGAAUGUGCUUUCC | ORC4 | 0.1227
UCUUGUAGCAGUAUUCAGG | FBXO30 | 0.04762
UGUGGAACAUCGUCUGUGA | C2orf82 | -0.4195
UGUUGGUGAAGAUACGCCG | TAL1 | -0.6005
UUCCGAUCUGCUGAGAUUC | C16orf91 | -0.2381
UUUGCAAUAACCAGAAUCG | DHX38 | 0.02307
UCAGGGUCUGAUACAGUCA | UMAD1 | 0.166
UCUCUUUUAGCCGAAGGCC | KIF22 | -0.2168
AAAGUACCGGAAACUAUGC | RALGAPB | 0.4188
UUAGUUUGUGGAGUGCUUC | KIAA1191 | 0.7555
AAUCCUAACGUAACGACCC | TRIM23 | 0.216
UGCCUUACAAUCUUCUGCG | RBP4 | -0.2927
AAACCGUCCAUUCUUAUCC | FNDC3A | 0.6057
AAUGUUAUGAAACCAAUAG | LIPJ | 0.213
UGAUGUUCAACCAUCAUCU | PPP1R1A | -0.6689
UAUGUUUGCGCACAAACUC | SRRT | -0.5725
UUAUCACCUCCAUAUAUCC | SLC6A6 | -0.5659
AAGGCGAAAAUGAACCAGG | SLC13A3 | 0.02891
AAAGAUUUGUGAAAAGAGC | TUBGCP6 | 1.135
UAUCGUAUCAGGAAUGAGG | OVOS2 | -0.5593
UAAUGGAAAAGCAGGUAAG | KRT34 | 0.3112
UCACUGGAACCAUUCGUGC | KLB | 0.2776
GAAGAAGAUGUAGACGCCC | RNF225 | 0.03777
UAUGGUAAUAUUACAGCCC | IGIP | 0.5457
UCCAUAUCAAGUGCAUUGG | CEP192 | -1.277
UUUCUUUCAGAUGCUUCUC | DLL1 | 0.1919
AUUCUUCUACUCUUCGUGC | ARGLU1 | 0.3321
UUGAAGAAGAUAGCCUUGC | KCNA7 | 0.4849
AAAGUUUUGGUCAUCAUAG | HYKK | 0.8625
UUCCGGAUCUCUAGGGUGC | MYBPH | -0.9497
UUUCGAUUGAGAUCCGUCC | CPO | 0.2956
UGAGCAUCUAGUUCAAUCC | STON2 | 0.529
UAAGACGUAAUAACCAGUC | SYNJ1 | -1.45
UAUUGUGAUCCUACCAGCU | SULT1A4 | -0.2933
UUCAUAACAAGGGAUGUGC | C12orf42 | -0.771
UACAGUGUAGAGAUCCUGG | ATP6V0A2 | 0.03295
UGAACUGUCAGGUUUCCUG | IL4R | 0.1854
UUUGCAAGACAAAUGGAUG | GTF2F2 | -1.226
UUUUCUUUAGCAACAUAAC | TMEM50A | 0.9734

Once more, the final 5:

{"sequence": "UUCAUAACAAGGGAUGUGC", "gene": "C12orf42", "seed-corrected z-score": "-0.771"}
{"sequence": "UACAGUGUAGAGAUCCUGG", "gene": "ATP6V0A2", "seed-corrected z-score": "0.03295"}
{"sequence": "UGAACUGUCAGGUUUCCUG", "gene": "IL4R", "seed-corrected z-score": "0.1854"}
{"sequence": "UUUGCAAGACAAAUGGAUG", "gene": "GTF2F2", "seed-corrected z-score": "-1.226"}
{"sequence": "UUUUCUUUAGCAACAUAAC", "gene": "TMEM50A", "seed-corrected z-score": "0.9734"}

Data taken from PubChem BioAssay AID1159506, deposited by NCATS (2015).